PubChem BioAssay AID2685 (National Center for Advancing Translational Sciences (NCATS), 2010)
Some of the results follow. Shown are side measurements of this screen, not its main read-out; they come without a call. The list favours compounds with an active or inconclusive main result. Words in brackets tell the shape of the fitted curve; partial curves, single points and poor fits give uncertain potencies.

Test: qHTS Assay for Lipid Storage Modulators in Drosophila S3 Cells;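 on cell number change: cells counted by Cell Tracker Red CMTPX staining in the red channel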
Details: BODIPY lipid droplet fluorescence, 18-24 h; for cell number change: measured here: cell count max response, cells fed with added oleic acid
Outline: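 Drosophila S3 cells loaded with oleic acid (400 uM, as added) and compounds at several concentrations; lipid droplets imaged by 488-nm laser-scanning cytometry, 500–530 nm intensity and object ratio to cell channel. Percent activity normalized to 20 uM Triacsin C.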

[1] = measured here: lipid fluorescence (Fed channel) AC50, cells fed with added oleic acid
[2] = measured here: cell number channel AC50, cells fed with added oleic acid

Row | Compound | AC50 [1] | cell number change [%] | AC50 [2]
1 | Cc1cccc(C2CC(c3ccc(Cl)cc3)Nc3nc(N)nn32)c1 (centres undefined) | 0.731 µM [rising, partial curve] | – | –
2 | CCCCCCCCCCCCN1C(=O)CSC1c1cccnc1 (centres undefined) | 20.6 µM [falling, single point] | -16.7 | –
3 | O=C(CCCn1c(=O)[nH]c2cc(Cl)ccc2c1=O)NCCCN1CCCC1 | – | -84.5 | 29.1 µM [falling, single point]
4 | CCCC/C(O)=C1\C(=O)CCCC1=NCCc1c(C)[nH]c2ccccc12 | 1.46 µM [rising, partial curve] | – | –
5 | O=C(NCc1ccco1)c1ccc(Cl)c(S(=O)(=O)Nc2ccccc2)c1 | – | -30.3 | 16.4 µM [falling, partial curve]
6 | Cc1cc(-c2n[nH]c(=S)n2/N=C/c2sccc2C)n[nH]1 | 23.1 µM [falling, partial curve, poor fit] | -18.9 | 0.13 µM [rising, full curve, poor fit]
7 | O=C(C1=C[C@H](c2coc3ccccc3c2=O)C[C@H](OCCCCO)O1)N1CCN(Cc2ccccc2)CC1 | 2.59 µM [rising, full curve] | 15 | –
8 | O=C(CSCc1ccc(F)cc1)N1CCN(c2ccc(F)cc2)CC1 | – | -33.7 | 29.1 µM [falling, single point]
9 | C/C(=N\N=C1\NC(=O)C(CC(=O)Nc2ccccc2F)S1)C1CCCCC1 (centres undefined) | – | -60.8 | 25.9 µM [falling, partial curve]
10 | CCCCOCC(O)Cn1c(C)nc2ccccc21 (centres undefined) | 0.92 µM [rising, full curve, poor fit] | -1.67 | –
11 | O=C(O)CC(NCc1ccco1)C(=O)OCCCl (centres undefined) | – | 6.51 | –
12 | COCCNC(=S)N1CCc2cc(OC)c(OC)cc2C1COc1ccc(F)cc1 (centres undefined) | 6.51 µM [falling, partial curve] | -33.9 | –
13 | N=C(c1cccc([N+](=O)[O-])c1)N1CCCCC1 | 0.103 µM [rising, full curve, poor fit] | 7.79 | –
14 | CCC(CO)Nc1ncnc2c1cnn2-c1ccc(Cl)cc1 (centres undefined) | – | 19.5 | –
15 | COc1cc(/C=C2/SC(=S)N(CCC(=O)Nc3ccccc3)C2=O)cc(OC)c1OC | 5.8 µM [falling, full curve] | – | –
16 | Cc1cccc(NC(=O)c2ccc(S(=O)(=O)N3CCCC3)cc2)c1C | – | -4.2 | –
17 | CCOc1ccccc1C(=O)N(Cc1ccc(C)o1)C1CCS(=O)(=O)C1 (centres undefined) | 18.4 µM [falling, partial curve] | -25.7 | –
18 | Cc1ccccc1NC(=O)COc1ccc(Br)cc1C | 7.31 µM [rising, partial curve, poor fit] | 33.3 | 32.6 µM [rising, single point]
19 | Cc1nc(NCc2ccco2)[nH]c(=O)c1CCC(C)C | 0.13 µM [falling, full curve, poor fit] | – | –
20 | COC(=O)NC1(C(F)(F)F)NC(=O)N(C2CCCCC2)C1=O (centres undefined) | 9.2 µM [falling, partial curve, poor fit] | -5.49 | –
21 | CCSc1nc(-c2ccc(OC)cc2)cc(-c2ccccc2)c1C#N | 18.4 µM [rising, partial curve] | 29.6 | 3.66 µM [rising, full curve, poor fit]

One compound at a time, as listed above. Values in the order: AC50 [1] | cell number change [%] | AC50 [2]
O=C(O)CC(NCc1ccco1)C(=O)OCCCl (centres undefined) in the list: – | 6.51 | –
Cc1cccc(C2CC(c3ccc(Cl)cc3)Nc3nc(N)nn32)c1 (centres undefined) in the list: 0.731 µM [rising, partial curve] | – | –
CCSc1nc(-c2ccc(OC)cc2)cc(-c2ccccc2)c1C#N in the list: 18.4 µM [rising, partial curve] | 29.6 | 3.66 µM [rising, full curve, poor fit]

Later entries.

Row | Compound | AC50 [1] | cell number change [%] | AC50 [2]
22 | COC(=O)c1ccc(C(=O)OC)c(NC(=O)C2CCCO2)c1 (centres undefined) | 0.103 µM [rising, full curve, poor fit] | -7.73 | –
23 | Cc1cc(NC(=O)CSc2nnc(-c3cccnc3)n2N)no1 | – | 27.8 | –
24 | COC(=O)c1ccc(CSc2nnc(N)s2)o1 | – | -4.63 | –
25 | Cc1ccc(S(=O)(=O)NC(=O)C2CCCCC2)cc1 | 1.3 µM [rising, full curve, poor fit] | 17.2 | –
26 | CCN1CCN(c2cc(C)c3cc(NC(=S)N4CCOCC4)ccc3n2)CC1 | – | -32.8 | 1.16 µM [falling, full curve]
27 | O=C(O)c1cc2nccc(-c3ccc(F)cc3)n2n1 | 8.2 µM [falling, partial curve] | -32.2 | 5.8 µM [falling, full curve, poor fit]
28 | COc1ccc(CNC(=O)Cc2csc(NC(=O)Nc3ccccc3OC)n2)cc1 | 2.06 µM [rising, full curve] | 26.9 | –
29 | CCOc1ccc(S(=O)(=O)Nc2cccc(C(=O)N3CCN(c4ccccc4O)CC3)c2)cc1 | 0.651 µM [falling, single point] | 2.54 | –
30 | O=C(c1ccc2c(c1)N(Cc1ccc(F)cc1)CCS2)N1CCOCC1 | – | -16.7 | –
31 | Cc1ncsc1CCOC(=O)C12CC3CC(CC(C3)C1)C2 | 7.31 µM [falling, partial curve, poor fit] | -0.799 | 0.0517 µM [falling, full curve, poor fit]
32 | CC(Sc1ncc(C#N)c(N)n1)C(=O)Nc1ccccc1 (centres undefined) | 29.1 µM [rising, single point] | – | –
33 | CC(=O)N1CCN(C(=O)CSc2nnc(C)n2-c2ccccc2)CC1 | 29.1 µM [rising, single point] | 9.93 | –
34 | CCn1nnc(NC(=O)c2cccnc2Cl)n1 | – | -104 | 29.1 µM [falling, single point]
35 | CN(c1cccc(Cl)c1)S(=O)(=O)c1cccc(C(=O)Nc2nc3ccccc3[nH]2)c1 | 0.326 µM [rising, full curve, poor fit] | 2.27 | –
36 | COc1ccccc1N1CCN(S(=O)(=O)c2ccc3c4c(cccc24)C(=O)N3C)CC1 | 0.58 µM [rising, single point] | – | –
37 | CCOC(=O)c1cc2occc2n1CC(=O)Nc1ccc(OC)cc1OC | – | 50.2 | 1.46 µM [rising, full curve]
38 | O=C(Nc1ccc(S(=O)(=O)N2CCCC2)cc1)c1ccc([N+](=O)[O-])cc1 | 29.1 µM [falling, single point] | 8.06 | –
39 | O=C(Nc1ccnn1C1CCN(Cc2c[nH]c3ccccc23)CC1)c1ccccc1 | 6.51 µM [rising, single point] | – | –
40 | CCOC(=O)C1(CCc2ccccc2)CCN(Cc2ccc(OC)cc2)CC1 | – | -20 | –
41 | COc1ccc(CN(Cc2cc3cc(OC)c(OC)cc3[nH]c2=O)C(=O)NC2CCCCC2)cc1 | 1.3 µM [rising, full curve] | 32.5 | 1.3 µM [rising, full curve]
